Measured values as given in PMC8931434.
Changes are numbered by the printed parent chain. Results are given in words; binding and its absence hold for the method and conditions named. Binding seen in cells or lysates may run through a third protein. Some results given as binding are weak or reduced against the parent protein; the word gives no strength. For some of these results: Sequences can lack the tags named with a protein.

Sequences of proteins named here, by UniProt entry; tags and fusion partners are left off.
UniProt Q6PCB7: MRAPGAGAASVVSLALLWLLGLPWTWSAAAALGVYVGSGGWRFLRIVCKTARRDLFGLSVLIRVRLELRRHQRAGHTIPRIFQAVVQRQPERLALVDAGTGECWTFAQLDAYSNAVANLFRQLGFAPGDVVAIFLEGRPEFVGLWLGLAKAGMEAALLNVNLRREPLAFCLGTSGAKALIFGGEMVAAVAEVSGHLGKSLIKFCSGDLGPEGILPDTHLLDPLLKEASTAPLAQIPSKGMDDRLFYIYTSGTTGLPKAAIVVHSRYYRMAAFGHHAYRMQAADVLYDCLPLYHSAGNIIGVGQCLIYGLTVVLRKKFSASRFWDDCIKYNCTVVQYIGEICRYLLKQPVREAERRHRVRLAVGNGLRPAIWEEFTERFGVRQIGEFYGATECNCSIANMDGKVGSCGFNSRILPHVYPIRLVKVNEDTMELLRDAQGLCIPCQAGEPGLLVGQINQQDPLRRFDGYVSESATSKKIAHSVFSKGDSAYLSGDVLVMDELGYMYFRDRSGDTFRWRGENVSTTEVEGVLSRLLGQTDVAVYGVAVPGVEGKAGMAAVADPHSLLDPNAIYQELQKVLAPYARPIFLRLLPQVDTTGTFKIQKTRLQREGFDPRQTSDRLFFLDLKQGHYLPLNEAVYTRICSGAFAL
UniProt Q6P1M0: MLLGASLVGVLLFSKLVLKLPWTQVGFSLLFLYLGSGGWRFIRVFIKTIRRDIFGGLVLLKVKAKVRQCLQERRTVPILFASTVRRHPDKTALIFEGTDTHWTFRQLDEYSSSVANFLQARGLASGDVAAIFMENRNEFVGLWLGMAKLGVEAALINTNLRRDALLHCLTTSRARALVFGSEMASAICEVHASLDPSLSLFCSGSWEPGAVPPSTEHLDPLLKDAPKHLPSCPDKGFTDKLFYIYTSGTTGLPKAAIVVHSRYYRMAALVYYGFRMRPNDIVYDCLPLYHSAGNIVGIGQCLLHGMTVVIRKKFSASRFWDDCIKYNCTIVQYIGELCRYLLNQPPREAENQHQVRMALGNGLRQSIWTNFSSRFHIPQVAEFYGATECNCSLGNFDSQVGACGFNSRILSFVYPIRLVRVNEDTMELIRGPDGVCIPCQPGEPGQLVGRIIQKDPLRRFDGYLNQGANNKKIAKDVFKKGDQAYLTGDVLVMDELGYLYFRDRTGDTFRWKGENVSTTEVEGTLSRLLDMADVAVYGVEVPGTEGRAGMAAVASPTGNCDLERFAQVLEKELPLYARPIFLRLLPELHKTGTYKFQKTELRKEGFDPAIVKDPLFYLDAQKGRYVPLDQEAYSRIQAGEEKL

Experiments:
CerS2^H212A-H213A-HA = target: T1, CerS2^H212A-H213A-HA (UniProt Q96G23); assay: co-IP; CerS2-HA or its mutants with FATP2-Flag transfected for 48 h into CerS2−/− Hek293T, lysis in 150 mM NaCl, 50 mM Tris–HCl pH 7.4, 1% Nonidet P-40, rabbit anti-HA antibody and protein A agarose at 4 °C, blot with anti-Flag
T1 sequence: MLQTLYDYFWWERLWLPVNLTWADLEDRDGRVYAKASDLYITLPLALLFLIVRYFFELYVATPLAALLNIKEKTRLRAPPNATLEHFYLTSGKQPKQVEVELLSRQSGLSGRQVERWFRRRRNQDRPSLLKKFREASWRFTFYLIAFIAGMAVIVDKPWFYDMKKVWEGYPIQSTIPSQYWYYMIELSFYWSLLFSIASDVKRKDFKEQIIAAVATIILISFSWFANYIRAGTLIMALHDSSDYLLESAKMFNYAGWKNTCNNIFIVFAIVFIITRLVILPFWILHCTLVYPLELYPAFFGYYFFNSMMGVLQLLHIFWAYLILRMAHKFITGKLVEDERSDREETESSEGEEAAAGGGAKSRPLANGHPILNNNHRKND

CerS2^Δ68–118-HA = target: T2, CerS2^Δ68–118-HA (UniProt Q96G23); assay: as above
T2 sequence: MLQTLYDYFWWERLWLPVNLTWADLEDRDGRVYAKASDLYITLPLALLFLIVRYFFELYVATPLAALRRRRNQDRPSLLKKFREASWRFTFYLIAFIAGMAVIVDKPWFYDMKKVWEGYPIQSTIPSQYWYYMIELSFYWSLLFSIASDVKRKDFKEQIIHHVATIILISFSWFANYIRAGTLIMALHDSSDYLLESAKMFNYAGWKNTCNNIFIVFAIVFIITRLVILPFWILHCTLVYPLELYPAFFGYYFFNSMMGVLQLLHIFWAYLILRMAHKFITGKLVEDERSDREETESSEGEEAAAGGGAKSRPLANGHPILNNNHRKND

CerS2(4A)-HA = target: T3, CerS2(4A)-HA (UniProt Q96G23); assay: as above
T3 sequence: T1 sequence with A212H, A213H, S341A, T346A, S348A, S349A

CerS2^Δ338–344-HA = target: T4, CerS2^Δ338–344-HA (UniProt Q96G23); assay: as above
T4 sequence: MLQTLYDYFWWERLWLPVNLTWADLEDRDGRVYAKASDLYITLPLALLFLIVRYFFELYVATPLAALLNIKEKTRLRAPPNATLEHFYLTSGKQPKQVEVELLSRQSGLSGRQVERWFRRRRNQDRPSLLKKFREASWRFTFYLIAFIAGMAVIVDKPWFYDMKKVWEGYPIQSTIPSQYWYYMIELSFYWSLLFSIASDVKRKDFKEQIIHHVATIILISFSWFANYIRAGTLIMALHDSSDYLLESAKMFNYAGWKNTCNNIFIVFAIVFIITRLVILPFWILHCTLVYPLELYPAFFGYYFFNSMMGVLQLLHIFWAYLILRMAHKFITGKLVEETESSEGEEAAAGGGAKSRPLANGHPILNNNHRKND

CerS2^Δ335–380-HA = target: T5, CerS2^Δ335–380-HA (UniProt Q96G23); assay: as above
T5 sequence: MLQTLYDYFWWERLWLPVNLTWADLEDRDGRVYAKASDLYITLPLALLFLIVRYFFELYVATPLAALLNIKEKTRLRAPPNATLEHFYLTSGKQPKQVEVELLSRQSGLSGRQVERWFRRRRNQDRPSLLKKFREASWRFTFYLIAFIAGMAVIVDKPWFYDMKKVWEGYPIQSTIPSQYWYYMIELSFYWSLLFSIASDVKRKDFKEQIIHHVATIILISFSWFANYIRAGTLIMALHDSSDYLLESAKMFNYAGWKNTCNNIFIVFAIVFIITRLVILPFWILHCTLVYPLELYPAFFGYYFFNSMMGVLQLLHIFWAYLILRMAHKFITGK

FATP1-Flag (human) = FATP1-Flag (human) (UniProt Q6PCB7); assay: co-IP; FATP-Flag transfected for 48 h into Hek293T (FATP2-Flag also into HepG2), lysis in 150 mM NaCl, 50 mM Tris–HCl pH 7.4, 1% Nonidet P-40, anti-DYKDDDDK resin overnight at 4 °C, blot for endogenous CerS2; for FATP2-Flag with or without FB1 (20 μM, 24 h)
FATP3-Flag (human) = target: T6, FATP3-Flag (human) (UniProt Q5K4L6); assay: as above
T6 sequence: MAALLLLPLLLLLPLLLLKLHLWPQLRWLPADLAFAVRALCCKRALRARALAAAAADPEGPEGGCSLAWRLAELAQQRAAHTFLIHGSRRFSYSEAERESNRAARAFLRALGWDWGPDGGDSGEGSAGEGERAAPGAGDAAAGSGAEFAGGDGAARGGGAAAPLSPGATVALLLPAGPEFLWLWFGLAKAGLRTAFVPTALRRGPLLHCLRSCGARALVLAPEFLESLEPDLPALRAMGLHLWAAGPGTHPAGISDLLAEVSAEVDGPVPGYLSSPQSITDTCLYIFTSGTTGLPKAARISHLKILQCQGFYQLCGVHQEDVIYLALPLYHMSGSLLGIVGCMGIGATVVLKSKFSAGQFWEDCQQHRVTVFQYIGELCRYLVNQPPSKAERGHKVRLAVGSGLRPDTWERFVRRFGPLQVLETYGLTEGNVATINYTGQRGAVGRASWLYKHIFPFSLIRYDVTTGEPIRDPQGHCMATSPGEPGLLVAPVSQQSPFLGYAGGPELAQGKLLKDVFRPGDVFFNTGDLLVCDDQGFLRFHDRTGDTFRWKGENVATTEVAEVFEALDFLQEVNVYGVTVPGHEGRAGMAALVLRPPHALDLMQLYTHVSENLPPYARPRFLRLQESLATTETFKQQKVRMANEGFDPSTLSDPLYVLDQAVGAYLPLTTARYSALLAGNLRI

FATP4-Flag (human) = FATP4-Flag (human) (UniProt Q6P1M0); assay: as above
FATP5-Flag (human) = target: T7, FATP5-Flag (human) (UniProt Q9Y2P5); assay: as above
T7 sequence: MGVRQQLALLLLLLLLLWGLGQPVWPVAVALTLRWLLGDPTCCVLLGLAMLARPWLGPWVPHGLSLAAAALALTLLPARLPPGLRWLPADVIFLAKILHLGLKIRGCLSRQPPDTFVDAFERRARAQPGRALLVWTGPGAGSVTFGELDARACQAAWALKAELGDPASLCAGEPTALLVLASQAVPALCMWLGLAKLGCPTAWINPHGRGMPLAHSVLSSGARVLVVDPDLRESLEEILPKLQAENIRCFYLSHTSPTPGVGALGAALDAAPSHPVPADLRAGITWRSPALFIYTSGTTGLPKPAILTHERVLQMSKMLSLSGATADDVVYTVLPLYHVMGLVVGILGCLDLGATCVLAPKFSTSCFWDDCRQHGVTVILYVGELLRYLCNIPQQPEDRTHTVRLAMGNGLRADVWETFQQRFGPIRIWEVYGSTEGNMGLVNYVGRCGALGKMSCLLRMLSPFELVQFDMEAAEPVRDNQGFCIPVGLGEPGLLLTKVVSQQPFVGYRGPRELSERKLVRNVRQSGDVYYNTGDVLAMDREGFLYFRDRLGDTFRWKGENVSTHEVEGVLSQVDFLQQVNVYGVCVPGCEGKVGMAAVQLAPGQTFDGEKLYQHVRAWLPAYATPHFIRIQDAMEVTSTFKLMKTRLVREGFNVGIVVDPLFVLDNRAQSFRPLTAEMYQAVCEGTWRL

FATP6-Flag (human) = target: T8, FATP6-Flag (human) (UniProt Q9Y2P4); assay: as above
T8 sequence: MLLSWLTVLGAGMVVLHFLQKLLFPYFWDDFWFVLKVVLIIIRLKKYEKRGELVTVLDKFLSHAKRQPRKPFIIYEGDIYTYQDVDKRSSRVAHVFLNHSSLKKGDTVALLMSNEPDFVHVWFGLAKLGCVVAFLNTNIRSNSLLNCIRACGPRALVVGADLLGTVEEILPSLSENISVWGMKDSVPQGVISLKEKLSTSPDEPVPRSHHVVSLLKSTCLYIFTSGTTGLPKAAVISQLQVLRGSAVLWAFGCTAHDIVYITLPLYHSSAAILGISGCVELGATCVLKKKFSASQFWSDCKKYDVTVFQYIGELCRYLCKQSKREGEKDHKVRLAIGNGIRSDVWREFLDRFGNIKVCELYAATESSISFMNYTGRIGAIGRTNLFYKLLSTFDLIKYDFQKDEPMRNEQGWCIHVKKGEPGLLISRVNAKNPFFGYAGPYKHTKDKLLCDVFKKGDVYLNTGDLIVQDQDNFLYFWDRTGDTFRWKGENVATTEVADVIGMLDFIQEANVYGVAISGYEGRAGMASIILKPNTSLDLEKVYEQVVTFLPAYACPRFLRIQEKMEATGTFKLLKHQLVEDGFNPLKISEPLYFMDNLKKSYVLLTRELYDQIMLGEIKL

| binding (CerS2^H212A-H213A-HA) | binding (CerS2^Δ68–118-HA) | binding (CerS2(4A)-HA) | binding (CerS2^Δ338–344-HA) | binding (CerS2^Δ335–380-HA) | binding (FATP1-Flag (human)) | binding (FATP3-Flag (human)) | binding (FATP4-Flag (human)) | binding (FATP5-Flag (human)) | binding (FATP6-Flag (human)) | Substance |
| --- | --- | --- | --- | --- | --- | --- | --- | --- | --- | --- |
| binds | binds | binds | binds | binds |  |  |  |  |  | FATP2-Flag (from UniProt O14975 1-620) |
|  |  |  |  |  | binds | binds | binds | binds | binds | CerS2 (endogenous in Hek293T and HepG2 cells) (from UniProt Q96G23 1-380) |
